Measurements taken from PubChem BioAssay AID624291 (National Center for Advancing Translational Sciences (NCATS), 2012).
The whole screen tested about 350,000 compounds, of which about 220 (0.063%) were called active. The shares of active, inactive and inconclusive entries below differ from those in the screen. Calls come from the whole dose curve; as a rule, active = well fitted activation curve with a large enough effect; inconclusive = small, poorly fitted or top-dose-only effect; inactive = no such curve, though single readings can be large or run the other way. Potencies beside an inconclusive call are fits to weak or partial responses and may not hold up.

Test: qHTS for Activators of Integrin-Mediated Alleviation for Muscular Dystrophy; note: nearly all actives have a fitted effect of over 60% in size;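 for activation: 100% = response of the positive control SU9516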
Details: alpha7betagal myoblasts, beta-gal FDG fluorescence, 48 h; activation: at 38.3 µM (top of the series)
Outline: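 Alpha7betagal+/- myoblasts (passage 13) were plated 16-24 hr, then exposed to compounds (1:260 dilution of DMSO stock) for 48 hours at 37C. After MPER lysis, β-galactosidase reporter activity was read as FDG fluorescence (ex 480/em 540) after 30 minutes.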
Potency is the fitted concentration of half-maximal effect.

Row | Compound | Potency | activation
1 | CCC(C)(C)NC(=O)C(OC(=O)c1ccco1)c1ccc(OC)cc1 (stereo unspecified) | inconclusive: 0.355 µM [activator, full curve, poor fit] | –
2 | COc1ccc2c(c1OC)C(=O)N1N=C(c3ccc(-c4ccccc4)cc3)CC21 (stereo unspecified) | inconclusive: 3.16 µM [activator, full curve, poor fit] | –
3 | COc1ccc(CSC(=N)N)cc1[N+](=O)[O-] | inactive | –
4 | CC(=O)N1CCN(c2ccc(NC(=O)c3ccc([N+](=O)[O-])o3)cc2Cl)CC1 | inactive | –
5 | O=C1S/C(=C\c2ccc(O)c([N+](=O)[O-])c2)C(=O)N1Cc1cccc([N+](=O)[O-])c1 | inactive | –
6 | Cc1nnc(NCc2ccncc2)c2ccccc12 | inactive | –
7 | O=C(Nc1cccc(C(F)(F)F)c1)C(Sc1ncnc2ccccc12)c1ccccc1 (stereo unspecified) | inactive | –
8 | Cn1c(-c2ccccc2[N+](=O)[O-])[n+](C)c2ccccc21 | inconclusive: 8.91 µM [activator, partial curve, poor fit] | –
9 | O=C(c1ccccc1)C(O)(Cc1ccccc1)c1ccccc1 (stereo unspecified) | inconclusive: 28.2 µM [activator, single point] | –
10 | CCCCCC(=O)Nc1c2c(nc3ccccc13)CCC2 | inconclusive: 5.01 µM [activator, single point] | –
11 | COC(=O)c1[nH]c2cc(OC)ccc2c1NC(=O)c1c(F)cccc1F | inconclusive: 28.2 µM [activator, single point] | –
12 | O=C(NCCc1ccccc1)c1cccc2c1C(=O)N(C1CCCCC1)C2 | inactive | –
13 | Cn1c(=O)n(C)c2cc(N3CCCC3)c(NC(=O)c3cccc(F)c3)cc21 | inconclusive: 7.08 µM [activator, partial curve, poor fit] | –
14 | CC(C)[C@H](N)c1nnc2n1N=C(c1ccc(Cl)cc1)CS2 | inconclusive: 3.55 µM [activator, single point] | –
15 | COc1ccc(Cc2nnc(NCCO)[nH]c2=O)cc1 | inconclusive: 3.98 µM [activator, full curve, poor fit] | –
16 | CC(C)C(NC(=O)c1c(F)cccc1F)C(=O)N1CCN(S(=O)(=O)/C=C/c2ccccc2)CC1 (stereo unspecified) | inconclusive: 28.2 µM [activator, single point] | –
17 | CCOC(=O)Cn1nc(C)c(NC(=O)COc2ccccc2)c1C | inconclusive: 0.355 µM [activator, full curve, poor fit] | –
18 | O=C(C#Cc1ccccc1)c1ccccc1 | inactive | –
19 | CC(=O)c1cc(C(=O)N2CCc3c([nH]c4ccccc34)C2C2CCCCC2)[nH]n1 (stereo unspecified) | inconclusive: 28.2 µM [activator, single point] | –
20 | CCCN=C(C)C1=C(O)c2ccccc2C1=O | inconclusive: 4.47 µM [activator, single point] | –
21 | CC(C)CN(Cc1cc(=O)oc2cc(-c3ccccc3)c(O)cc12)CC(C)C | inconclusive: 7.94 µM [activator, partial curve, poor fit] | –
22 | S=C(NCc1cccs1)Nc1cccc(Cl)c1 | – | inactive: 32.4% [at 7.66 µM]
23 | O=S1(=O)CCO[C@H]2Cc3ccccc3[C@H]2N1Cc1cccc(Cl)c1 | inactive | –
24 | CC(C)c1ccc(NS(=O)(=O)c2cccc3cccnc23)cc1 | inconclusive: 28.2 µM [activator, single point] | –

Row | Compound | Potency | activation
25 | O=C(c1ccc(Cl)cc1)c1oc2ccccc2c1CS(=O)c1ccc(Cl)cc1 (stereo unspecified) | inactive | –
26 | CN(CC(=O)Nc1ccc(F)cc1)C(=O)C1CCCC1 | inconclusive: 10 µM [activator, single point] | –
27 | COC(=O)c1sc2nc3c(cc2c1N)C(=O)CC(C)(C)C3 | inconclusive: 28.2 µM [activator, single point] | –
28 | CCN1CCN(Cc2ccc(NC(=O)c3cc(NC(=O)C4=NN(c5ccccc5)C(=O)C4)cc(OC)c3)cc2C(F)(F)F)CC1 | inactive | –
29 | COc1ccc(N(CC(=O)Nc2cccc3ccccc23)S(C)(=O)=O)cc1 | inconclusive: 7.94 µM [activator, partial curve, poor fit] | –
30 | COc1ccc(C)cc1NC(=O)CNC(=O)c1sc2ccccc2c1Cl | inactive | –
31 | O=C(c1ccc(Br)cc1)N1CCCc2ccccc21 | inconclusive: 3.55 µM [activator, single point] | –
32 | N=C1S/C(=C\c2ccc(O)cc2)C(=O)N1c1ccc(F)cc1 | inactive | –
33 | CCCOC(=O)c1ccc(Oc2c(-c3ccc(OC)cc3O)n[nH]c2C)cc1 | inactive | –
34 | CCC(=O)Nc1ccc(NC(=O)c2cc3ccccc3o2)c(OC)c1 | inconclusive: 10 µM [activator, single point] | –
35 | Brc1ccccc1OCCN1CCCC1 | inconclusive: 2.82 µM [activator, partial curve, poor fit] | –
36 | CC1(C)CC(=O)C=C(NCc2cccs2)C1 | inconclusive: 0.708 µM [activator, full curve, poor fit] | –
37 | COc1ccc(C(CC(=O)c2ccc(O)cc2)S(=O)(=O)c2ccc(C)cc2)cc1 (stereo unspecified) | inactive | –
38 | CC(=O)Nc1c2c(nn1-c1ccc(C)cc1)CS(=O)(=O)C2 | inconclusive: 10 µM [activator, single point] | –
39 | Cc1nn(Cc2noc(C(=O)NCc3ccc4c(c3)OCO4)n2)c(C)c1Br | inconclusive: 28.2 µM [activator, single point] | –
40 | COc1ccc(-c2[nH]nc3oc(=O)cc(C)c23)cc1 | inactive | –
41 | CCOC(=O)c1c(NC(=O)COC(=O)c2cc(OC)c(OC)cc2[N+](=O)[O-])sc(C)c1CC | inconclusive: 5.01 µM [activator, single point] | –
42 | COCCNC(=S)N/N=C(\C)c1ccc(Cl)s1 | inactive | –
43 | Cc1cc(C(=O)CSc2nc3ccccc3[nH]2)c(C)n1Cc1ccco1 | inactive | –
44 | Cc1cc[n+](-c2[nH]c(=O)sc2/C=N/N=C(\[O-])c2ccccc2)cc1 | inconclusive: 3.16 µM [activator, single point] | –
45 | CC(=O)Nc1ccc(NC(=O)C2CC(=O)N(c3ccccc3Cl)C2)cc1 (stereo unspecified) | inconclusive: 5.62 µM [activator, partial curve] | –
46 | O=C(O)c1ccc(N(c2ccccc2)c2ccccc2)cc1 | inconclusive: 20 µM [activator, single point] | –
47 | Cc1[nH]c2ccccc2c1CCNC(=O)c1c(N)no[n+]1[O-] | inconclusive: 6.31 µM [activator, partial curve, poor fit] | –
48 | CCOC(=O)c1c(C)oc2ccc(OC(=O)COc3c(F)c(F)c(F)c(F)c3F)cc12 | inconclusive: 11.2 µM [activator, single point] | –

Row | Compound | Potency | activation
49 | COc1cc(OC)cc(C(=O)NC(=S)Nc2nnn(C)n2)c1 | inconclusive: 20 µM [activator, single point] | –
50 | CC1CCCN(CC(=O)NC(=O)NC2CCCCC2)C1 (stereo unspecified) | inactive | –
51 | O=C(O)C(Oc1ccc2cc(-c3ccc(Cl)cc3)c(=O)oc2c1)c1ccccc1 (stereo unspecified) | inactive | –
52 | O=C(COc1ccc2c3c(c(=O)oc2c1)CCCC3)NCc1cccnc1 | inconclusive: 0.631 µM [activator, single point] | –
53 | Cc1cccc(C)c1OCC(=O)NCC1CCCO1 (stereo unspecified) | inconclusive: 7.94 µM [activator, partial curve, poor fit] | –
54 | O=C(N/N=C/c1cccnc1)C12CC3CC(CC(C3)C1)C2 | inconclusive: 1.78 µM [activator, partial curve, poor fit] | –
55 | CCCc1nnc(NC(=O)CCC(=O)NCCc2ccc(Cl)cc2)s1 | inconclusive: 28.2 µM [activator, single point] | –
56 | COc1ccc(-c2nc(N)ncc2-c2ccc(OC)c(OC)c2)c(O)c1 | inconclusive: 11.2 µM [activator, partial curve, poor fit] | –
57 | COc1ccc(NC(=O)Nc2cccs2)cc1OC | inactive | –
58 | O=C(COC(=O)CCC(=O)c1ccc(F)cc1)NCc1ccco1 | inconclusive: 1.12 µM [activator, partial curve, poor fit] | –
59 | O=C(C1CC(=O)N(c2ccc(F)cc2)C1)N1CCCCCC1 (stereo unspecified) | inconclusive: 2.82 µM [activator, single point] | –
60 | CCN(Cc1cn2cccnc2n1)C1CCCCC1 | inconclusive: 0.501 µM [activator, full curve, poor fit] | –
61 | Cc1ccc(N2CCN(S(=O)(=O)N3CCCCC3)CC2)c(C)c1 | inconclusive: 5.01 µM [activator, single point] | –
62 | CCCCN(CC(=O)NC(C)(C)C)C(=O)C(=O)Nc1ccc2c(c1)OCCO2 | inconclusive: 14.1 µM [activator, single point] | –
63 | O=C(NCc1ccco1)c1ccc(COc2cccc3ccccc23)cc1 | inactive | –
64 | Cc1cc([N+](=O)[O-])nn1CC(=O)Nc1cnc2ccccc2c1 | inconclusive: 0.316 µM [activator, full curve, poor fit] | –
65 | Cc1ccc(C(=O)Nc2cccc(C(=O)N/N=C/c3ccc(O)cc3)c2)cc1 | inactive | –
66 | c1ccc(-n2c(-c3cccs3)nc3nc4ccccc4nc32)cc1 | inconclusive: 5.01 µM [activator, single point] | –
67 | O=C(CNS(=O)(=O)c1cccs1)N1CCN(c2ccccc2F)CC1 | inactive | –
68 | Cc1ccc2[nH]c3c(c2c1)CCN(C)C3 | inconclusive: 3.16 µM [activator, partial curve, poor fit] | –
69 | COc1ccc(-n2c(=S)[nH]c3cc(C(=O)NCc4ccc(F)cc4)ccc3c2=O)c(OC)c1 | inconclusive: 28.2 µM [activator, single point] | –
70 | Cc1cccc(NC(=O)Cn2cnc3sc(C)c(S(=O)(=O)N4CCC(C)CC4)c3c2=O)n1 | inactive | –
71 | CCC(C)N(C(=O)c1csnn1)C(C(=O)NC1CCCC1)c1ccc(F)cc1 (stereo unspecified) | inactive | –

Exported in CSV form: part of the list above
Row,Compound,Potency,activation
60,CCN(Cc1cn2cccnc2n1)C1CCCCC1,"inconclusive: 0.501 µM [activator, full curve, poor fit]",–
61,Cc1ccc(N2CCN(S(=O)(=O)N3CCCCC3)CC2)c(C)c1,"inconclusive: 5.01 µM [activator, single point]",–
62,CCCCN(CC(=O)NC(C)(C)C)C(=O)C(=O)Nc1ccc2c(c1)OCCO2,"inconclusive: 14.1 µM [activator, single point]",–
